The exact form of at least one protein or probe is not confirmed.
Tested on: MBP-GmZF-HD1
Assay: EMSA
Conditions: LightShift Chemiluminescent EMSA kit; room temperature 30 min; 6% native PAGE, 0.5x TBE, 60 V, 1 h, 4 C; binding buffer, salt and pH not stated; recombinant protein; protein details: MBP; label: 5' biotin

TTAAACTTGTAATTCCCGTAT (double strand) [GmSPS17 promoter cis-element probe]
binding result: binds

— PMC12701574
